Source: PMC4995099, “Drosophila Nanos acts as a molecular clamp that modulates the RNA-binding and repression activities of Pumilio”
No signal at the amounts used counts as a negative. For some of these results: At least one verdict was read from the data and is not stated in words by the source. For some of these results: Protein sequences can lack the tags named with them.

Tests used:
Assay in all cases: EMSA
[1] = system: Pum Q1337A + Nos ZC WT (EMSA); settings: ternary complex not formed, RNA label form not stated; EMSA: 50 mM Tris-HCl pH 7.6, 150 mM NaCl, 2 mM DTT, 2 ug/mL BSA, 0.01% Igepal CA-630, 0.02% bromophenol blue, 20% glycerol, 3 h at 4 C; 1 nM Cy5 RNA or 0.3 nM 32P RNA; recombinant protein; label: 5' Cy5
[2] = molecular target: T1, Pum mutR7 S1342A,N1343A,E1346A (UniProt P25822); settings: described as RNA-binding deficient; EMSA: 50 mM Tris-HCl pH 7.6, 150 mM NaCl, 2 mM DTT, 2 ug/mL BSA, 0.01% Igepal CA-630, 0.02% bromophenol blue, 20% glycerol, 3 h at 4 C; 1 nM Cy5 RNA or 0.3 nM 32P RNA; recombinant protein; residues 1091-1426; protein details: N-terminal 3xFLAG, Halo-tag removed by TEV; label: 5' Cy5
T1 sequence (looked up): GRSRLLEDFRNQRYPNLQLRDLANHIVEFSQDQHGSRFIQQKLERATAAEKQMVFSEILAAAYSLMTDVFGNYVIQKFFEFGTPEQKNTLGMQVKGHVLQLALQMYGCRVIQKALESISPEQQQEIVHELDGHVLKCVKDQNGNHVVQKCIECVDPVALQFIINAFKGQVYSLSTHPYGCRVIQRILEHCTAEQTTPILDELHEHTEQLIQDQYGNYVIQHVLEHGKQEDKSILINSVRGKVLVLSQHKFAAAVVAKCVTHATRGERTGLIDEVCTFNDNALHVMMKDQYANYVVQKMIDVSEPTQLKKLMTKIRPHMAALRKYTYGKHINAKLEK

[3] = system: Pum F1367S + Nos ZC WT (EMSA); settings: ternary complex not formed, RNA label form not stated; EMSA: 50 mM Tris-HCl pH 7.6, 150 mM NaCl, 2 mM DTT, 2 ug/mL BSA, 0.01% Igepal CA-630, 0.02% bromophenol blue, 20% glycerol, 3 h at 4 C; 1 nM Cy5 RNA or 0.3 nM 32P RNA; recombinant protein; label: 5' Cy5
[4] = system: Pum PUM-HD WT (EMSA) + Nos ZC C354Y; settings: ternary complex not formed; EMSA: 50 mM Tris-HCl pH 7.6, 150 mM NaCl, 2 mM DTT, 2 ug/mL BSA, 0.01% Igepal CA-630, 0.02% bromophenol blue, 20% glycerol, 3 h at 4 C; 1 nM Cy5 RNA or 0.3 nM 32P RNA; recombinant protein; label: 5' Cy5
[5] = system: Pum PUM-HD WT (EMSA) + Nos ZC C319Y; settings: ternary complex not formed; EMSA: 50 mM Tris-HCl pH 7.6, 150 mM NaCl, 2 mM DTT, 2 ug/mL BSA, 0.01% Igepal CA-630, 0.02% bromophenol blue, 20% glycerol, 3 h at 4 C; 1 nM Cy5 RNA or 0.3 nM 32P RNA; recombinant protein; label: 5' Cy5
[6] = system: Pum PUM-HD WT (EMSA) + Nos ZC WT (EMSA); settings: ternary complex not formed; EMSA: 50 mM Tris-HCl pH 7.6, 150 mM NaCl, 2 mM DTT, 2 ug/mL BSA, 0.01% Igepal CA-630, 0.02% bromophenol blue, 20% glycerol, 3 h at 4 C; 1 nM Cy5 RNA or 0.3 nM 32P RNA; recombinant protein

Row | Sequence | binding result [1] | binding result [2] | binding result [3] | binding result [4] | binding result [5] | binding result [6]
1 | UUGUUGUCGAAAAUUGUACAUAAGCC [Cy5-hb NRE2 RNA] | no binding | no binding | no binding | no binding | no binding | –
2 | AACUUGUACAUAAGCC [hb NRE2 -2C RNA] | – | – | – | – | – | no binding
3 | AAACUGUACAUAAGCC [hb NRE2 -1C RNA] | – | – | – | – | – | no binding
